The text below walks through data of paper PMC4391858.

Protein sequences, listed by entry. Tags and fused reporters are not part of them. Lines headed by an entry give the natural chain unless they say otherwise; changes in a name come on top. Chains listed by the source or under a name are the forms on record and can include a tag or linker. Residues count along the entry.
UniProt Q01705, residues 19-2184: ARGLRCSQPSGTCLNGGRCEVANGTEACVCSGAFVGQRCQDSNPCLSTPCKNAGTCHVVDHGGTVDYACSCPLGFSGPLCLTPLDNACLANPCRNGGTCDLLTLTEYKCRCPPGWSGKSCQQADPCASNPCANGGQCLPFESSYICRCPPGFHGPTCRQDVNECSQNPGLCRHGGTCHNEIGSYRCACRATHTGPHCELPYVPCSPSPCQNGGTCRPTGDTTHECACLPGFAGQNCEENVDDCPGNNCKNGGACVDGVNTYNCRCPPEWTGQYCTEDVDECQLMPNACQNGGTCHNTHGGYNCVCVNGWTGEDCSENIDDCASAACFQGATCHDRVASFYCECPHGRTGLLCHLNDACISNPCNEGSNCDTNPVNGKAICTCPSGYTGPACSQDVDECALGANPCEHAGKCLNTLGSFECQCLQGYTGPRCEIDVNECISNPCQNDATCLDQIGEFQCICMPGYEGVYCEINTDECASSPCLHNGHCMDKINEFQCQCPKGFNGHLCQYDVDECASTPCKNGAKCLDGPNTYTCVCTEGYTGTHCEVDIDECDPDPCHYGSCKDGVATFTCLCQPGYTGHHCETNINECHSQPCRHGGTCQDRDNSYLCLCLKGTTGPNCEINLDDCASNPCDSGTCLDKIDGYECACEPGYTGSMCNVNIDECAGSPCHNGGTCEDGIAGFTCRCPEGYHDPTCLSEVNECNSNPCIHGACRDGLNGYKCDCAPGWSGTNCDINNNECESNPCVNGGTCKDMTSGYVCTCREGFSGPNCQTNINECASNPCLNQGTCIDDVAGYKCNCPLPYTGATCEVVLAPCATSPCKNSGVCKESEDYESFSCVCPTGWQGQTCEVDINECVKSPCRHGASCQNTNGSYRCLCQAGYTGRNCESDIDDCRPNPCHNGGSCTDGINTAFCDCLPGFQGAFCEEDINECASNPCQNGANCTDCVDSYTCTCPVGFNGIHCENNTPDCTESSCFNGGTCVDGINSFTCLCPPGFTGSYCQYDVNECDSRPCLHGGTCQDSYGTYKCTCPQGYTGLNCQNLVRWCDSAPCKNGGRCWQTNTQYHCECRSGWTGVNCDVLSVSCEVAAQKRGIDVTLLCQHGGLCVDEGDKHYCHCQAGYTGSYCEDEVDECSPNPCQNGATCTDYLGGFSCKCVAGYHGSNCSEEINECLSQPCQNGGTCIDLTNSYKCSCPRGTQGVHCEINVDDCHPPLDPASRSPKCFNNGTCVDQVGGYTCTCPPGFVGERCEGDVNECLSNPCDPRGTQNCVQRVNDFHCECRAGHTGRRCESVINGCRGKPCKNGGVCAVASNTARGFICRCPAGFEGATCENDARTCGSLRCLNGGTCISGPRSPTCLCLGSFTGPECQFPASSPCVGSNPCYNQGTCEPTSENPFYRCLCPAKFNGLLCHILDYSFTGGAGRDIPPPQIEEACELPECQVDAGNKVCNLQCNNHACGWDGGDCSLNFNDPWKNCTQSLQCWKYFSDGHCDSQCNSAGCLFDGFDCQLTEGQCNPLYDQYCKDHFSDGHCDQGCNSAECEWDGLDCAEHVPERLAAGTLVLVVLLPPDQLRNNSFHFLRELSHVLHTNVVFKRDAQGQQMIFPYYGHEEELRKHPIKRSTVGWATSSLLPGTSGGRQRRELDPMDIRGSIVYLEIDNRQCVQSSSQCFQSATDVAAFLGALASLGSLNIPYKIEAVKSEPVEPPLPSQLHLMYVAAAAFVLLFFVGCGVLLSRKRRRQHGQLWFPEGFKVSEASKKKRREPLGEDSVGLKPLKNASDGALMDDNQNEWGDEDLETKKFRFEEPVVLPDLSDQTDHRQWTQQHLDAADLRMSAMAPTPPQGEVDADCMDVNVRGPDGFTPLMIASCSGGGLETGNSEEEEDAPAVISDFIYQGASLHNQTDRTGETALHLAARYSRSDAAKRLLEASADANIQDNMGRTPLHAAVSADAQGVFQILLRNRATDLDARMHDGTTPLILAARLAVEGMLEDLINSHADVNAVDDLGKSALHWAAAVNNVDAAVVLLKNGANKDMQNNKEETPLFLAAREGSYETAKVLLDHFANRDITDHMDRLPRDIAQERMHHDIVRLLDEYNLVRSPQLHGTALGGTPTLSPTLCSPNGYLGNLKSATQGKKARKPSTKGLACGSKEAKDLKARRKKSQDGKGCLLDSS
Flag-tagged DLL3-S286A,T403V (O88516, form named): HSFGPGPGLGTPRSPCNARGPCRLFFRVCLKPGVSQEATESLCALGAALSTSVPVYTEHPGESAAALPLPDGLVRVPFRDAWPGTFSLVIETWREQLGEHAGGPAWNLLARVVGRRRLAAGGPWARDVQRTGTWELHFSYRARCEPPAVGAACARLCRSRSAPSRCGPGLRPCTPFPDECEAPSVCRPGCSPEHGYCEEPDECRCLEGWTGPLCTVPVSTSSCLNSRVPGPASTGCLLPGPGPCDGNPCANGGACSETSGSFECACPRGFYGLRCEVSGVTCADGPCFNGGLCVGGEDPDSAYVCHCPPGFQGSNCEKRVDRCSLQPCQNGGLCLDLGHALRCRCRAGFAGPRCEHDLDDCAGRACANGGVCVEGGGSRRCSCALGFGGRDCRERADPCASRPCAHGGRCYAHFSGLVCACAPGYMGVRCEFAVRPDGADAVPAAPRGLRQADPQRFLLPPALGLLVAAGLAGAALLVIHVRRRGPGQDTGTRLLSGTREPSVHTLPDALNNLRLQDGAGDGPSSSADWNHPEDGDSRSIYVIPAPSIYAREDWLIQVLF
UniProt Q61483, residues 18-722: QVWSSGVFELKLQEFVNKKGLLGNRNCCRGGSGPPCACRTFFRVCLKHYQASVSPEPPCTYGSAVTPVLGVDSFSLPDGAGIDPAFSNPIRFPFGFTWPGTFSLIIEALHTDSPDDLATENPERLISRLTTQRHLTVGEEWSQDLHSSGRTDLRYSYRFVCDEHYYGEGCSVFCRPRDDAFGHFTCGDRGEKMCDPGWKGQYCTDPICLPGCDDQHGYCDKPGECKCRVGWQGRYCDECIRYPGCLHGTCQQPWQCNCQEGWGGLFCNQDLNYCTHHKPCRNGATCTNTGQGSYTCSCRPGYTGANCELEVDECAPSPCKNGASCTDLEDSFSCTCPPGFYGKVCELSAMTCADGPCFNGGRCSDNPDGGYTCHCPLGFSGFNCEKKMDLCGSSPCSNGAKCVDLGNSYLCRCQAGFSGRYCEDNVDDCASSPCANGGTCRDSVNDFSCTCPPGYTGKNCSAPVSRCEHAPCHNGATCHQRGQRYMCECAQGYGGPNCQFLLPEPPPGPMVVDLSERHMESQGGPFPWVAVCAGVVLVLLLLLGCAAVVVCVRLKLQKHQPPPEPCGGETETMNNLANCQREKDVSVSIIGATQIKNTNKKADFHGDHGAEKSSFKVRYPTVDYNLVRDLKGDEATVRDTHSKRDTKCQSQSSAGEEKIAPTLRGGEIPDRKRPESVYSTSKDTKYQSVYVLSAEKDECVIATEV

These are yes or no findings as the source states them, for the method shown. In cells and extracts the contact can be indirect. Some binding calls cover weakened binding; strength is not graded here. For some of these results: Sequences can lack the tags named with a protein.

In experiment [1] the target is Myc-tagged Notch1 (Notch1Myc-pCS2+, AA 1 to 2184 of mouse Notch1 with 6-fold Myc-tag) (mouse) (UniProt Q01705). Put plainly: co-IP; proteins co-expressed in CHO cells; lysis in 50 mM Tris-HCl pH 7.5, 150 mM NaCl, 1 mM EDTA, 1% NP-40, 1% Triton X-100; IP with anti-Flag, anti-Myc or anti-LFNG antibody and Protein G Ultralink resin overnight at 4°C; washes with 500 mM NaCl buffer; Western blot.

For experiment [2], the target named is Flag-tagged DLL3-S286A,T403V (mouse) (UniProt O88516). The experiment is described as above.

Turning to “Flag-tagged DLL3-S286A,T403V (from UniProt O88516 33-592)”, the binding entry in experiment [1] is recorded as “binds”.

On to “MycHis-tagged DLL1 (from UniProt Q61483 18-722) (ligand)”, for which the binding result in experiment [2] is reported as “binds”.

Turning to “Myc-tagged Notch1 (Notch1Myc-pCS2+, AA 1 to 2184 of mouse Notch1 with 6-fold Myc-tag) (from UniProt Q01705 19-2184) (receptor)”, the binding result in experiment [2] was “binds”.

B1: HA-tagged mouse Lunatic fringe (LFNG) (enzyme, UniProt O09010 1-378)
chain: MLQRCGRRLLLALVGALLACLLVLTADPPPTPMPAERGRRALRSLAGSSGGAPASGSRAAVDPGVLTREVHSLSEYFSLLTRARRDADPPPGVASRQGDGHPRPPAEVLSPRDVFIAVKTTRKFHRARLDLLFETWISRHKEMTFIFTDGEDEALAKLTGNVVLTNCSSAHSRQALSCKMAVEYDRFIESGKKWFCHVDDDNYVNLRALLRLLASYPHTQDVYIGKPSLDRPIQATERISEHKVRPVHFWFATGGAGFCISRGLALKMGPWASGGHFMSTAERIRLPDDCTIGYIVEALLGVPLIRSGLFHSHLENLQQVPTTELHEQVTLSYGMFENKRNAVHIKGPFSVEADPSRFRSVHCHLYPDTPWCPRSAIF
With B1, the binding entry in experiment [2] is listed as “binds”.
